Experimental data published in patent publication US20030220254A1, “Composition and method for preparation of an oral dual controlled release formulation of a protein and inhibitor” (TEXAS TECH UNIVERSITY SYSTEM, priority 2002, published 2003).
For some of these results: Not every detail of the peptide structures is certain; ends, links or a residue may be inferred. Some entries share one result that the patent states for a list of compounds. For some of these results: For at least one compound, name, drawing or mass did not settle the structure.

Tests used:
Type in all cases: biochemical
α-chymotrypsin [1] = molecular target: T1, α-chymotrypsin (Bos taurus, UniProt P00766); test: α-chymotrypsin mediated degradation of insulin with inhibitors (HPLC); conditions: deaggregating agent + α-chymotrypsin, no inhibitor
Procedure: Stability studies in the presence of chicken and duck ovomucoid were conducted. […] The degradation profiles were generated in the presence of 0.1 μM α-chymotrypsin and 0.5 μM trypsin over a period of 60 minutes that served as controls. These concentrations were selected based on a reported study (Schilling & Mitra 1991).
Samples were taken at 0, 5, 15, 30 and 60 minutes and immediately diluted with cold 1% TFA/TRIS to reduce the pH to 2.5. The samples were analyzed at 4° C. by a reverse-phase HPLC method using a Varian Chromatography Workstation. […] Similar studies were performed with aprotinin.
The protocol used was the same as above with minor modifications. […] The degradation profiles were generated in the presence of α-chymotrypsin and DkOVM. The enzyme to inhibitor ratio used was 1:1 with respect to α-chymotrypsin.

trypsin = molecular target: T2, trypsin (Bos taurus, UniProt P00760); test: Stability of sCT in the presence of trypsin and protease inhibitors
T2 construct: gene PRSS1
T2 sequence (P00760 24-246): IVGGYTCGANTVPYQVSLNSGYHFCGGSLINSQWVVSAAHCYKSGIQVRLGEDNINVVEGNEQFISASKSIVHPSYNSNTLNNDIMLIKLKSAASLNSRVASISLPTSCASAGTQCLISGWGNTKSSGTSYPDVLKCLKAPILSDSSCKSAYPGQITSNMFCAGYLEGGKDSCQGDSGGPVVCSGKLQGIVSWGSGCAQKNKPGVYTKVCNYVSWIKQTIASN
Procedure: (§1) sCT solutions (50 μM) were incubated at 37° C. in 50 mM Tris buffer containing 0.1 mM calcium chloride (pH 8.0). Degradation profiles generated in the presence of 0.5 μM trypsin and 0.1 μM α-chymotrypsin served as controls. The concentrations were selected on the basis of a reported study (Schilling R. J. and Mitra A. K. 1991). DkOVM and TkOVM were evaluated at different enzyme-to-inhibitor ratios to evaluate their inhibition of sCT degradation. CkOVM and aprotinin were used at 1:1 enzyme-to-inhibitor ratio in order to compare the efficacy of various protease inhibitors used. sCT and enzyme solutions were incubated for 15 min at 37° C. before starting the experiments. Samples were taken after 0, 5, 15, 30 and 60 min and immediately diluted with cold 1% trifluoroacetic acid (TFA) to reduce the pH to 2.5. The samples were analysed at 4° C. by HPLC given below. […] The study was also conducted by incubating 50 μM sCT solutions with 0.5 μM trypsin and 0.1 μM α-chymotrypsin added together and the efficacy of TkOVM was evaluated at various ratios.
(§2) sCT was analyzed by means of our validated HPLC method (Shah R B, et al., 2003). […] 50 μl of samples were injected into the column which were analyzed by the reversed phase HPLC method. […] Concentrations of sCT were quantified from integrated peak areas and calculated by interpolation from an according standard curve.

α-chymotrypsin [2] = molecular target: T1, α-chymotrypsin; test: Stability of sCT in the presence of α-chymotrypsin and protease inhibitors; conditions: no inhibitor
Procedure: as §1, §2

[3] = tested on: trypsin and α-chymotrypsin; test: Stability of sCT with trypsin and α-chymotrypsin added together, with TkOVM; conditions: no inhibitor
Procedure: sCT solutions (50 μM) were incubated at 37° C. in 50 mM Tris buffer containing 0.1 mM calcium chloride (pH 8.0). Degradation profiles generated in the presence of 0.5 μM trypsin and 0.1 μM α-chymotrypsin served as controls. The concentrations were selected on the basis of a reported study (Schilling R. J. and Mitra A. K. 1991). DkOVM and TkOVM were evaluated at different enzyme-to-inhibitor ratios to evaluate their inhibition of sCT degradation. CkOVM and aprotinin were used at 1:1 enzyme-to-inhibitor ratio in order to compare the efficacy of various protease inhibitors used. sCT and enzyme solutions were incubated for 15 min at 37° C. before starting the experiments. Samples were taken after 0, 5, 15, 30 and 60 min and immediately diluted with cold 1% trifluoroacetic acid (TFA) to reduce the pH to 2.5. The samples were analysed at 4° C. by HPLC given below. Plots of sCT remaining against time were generated. […] (amount of sCT (%) remaining after 60 min) were used to compare the efficacy of the ovomucoids. Similar studies were performed with aprotinin. The study was also conducted by incubating 50 μM sCT solutions with 0.5 μM trypsin and 0.1 μM α-chymotrypsin added together and the efficacy of TkOVM was evaluated at various ratios.
sCT was analyzed by means of our validated HPLC method (Shah R B, et al., 2003). Briefly, a computer controlled Varian Chromatography workstation consisting of the following components was used: Two Dynamax SD-200 pumps, an AI-200A autosampler fitted with a 100 μl injection loop, a Dynamax UV-1 detector and Star 5.3 chromatography software. Room temperature was maintained for the column and chromatographic separations were carried out on a C-18 Vydac 218MS54 column (5 μm, 4.6×250 mm) with a pore size of 300 Å. 50 μl of samples were injected into the column which were analyzed by the reversed phase HPLC method. The mobile phase consisted of 0.05% v/v TFA-Water (A) and 0.05% v/v TFA-Acetonitrile (B). […] Concentrations of sCT were quantified from integrated peak areas and calculated by interpolation from an according standard curve.

`C[C@H](CCC(=O)NCC(=O)[O-])[C@H]1CC[C@H]2[C@@H]3[C@H](O)C[C@@H]4C[C@H](O)CC[C@]4(C)[C@H]3C[C@H](O)[C@]12C.[Na+]` [NaGC, sodium glycocholate] was tested, and the “%I60min lower than with α-chymotrypsin alone” value (α-chymotrypsin [1]) was “at least 2 fold”.

`CC(C)C[C@H](NC(=O)[C@H](CCCCN)NC(=O)CNC(=O)[C@H](CC(C)C)NC(=O)[C@@H](NC(=O)[C@@H]1CSSC[C@H](N)C(=O)N[C@@H](CO)C(=O)N[C@@H](CC(N)=O)C(=O)N[C@@H](CC(C)C)C(=O)N[C@@H](CO)C(=O)N[C@@H]([C@@H](C)O)C(=O)N1)C(C)C)C(=O)N[C@@H](CO)C(=O)N[C@@H](CCC(N)=O)C(=O)N[C@@H](CCC(=O)O)C(=O)N[C@@H](CC(C)C)C(=O)N[C@@H](Cc1c[nH]cn1)C(=O)N[C@@H](CCCCN)C(=O)N[C@@H](CC(C)C)C(=O)N[C@@H](CCC(N)=O)C(=O)N[C@H](C(=O)N[C@@H](Cc1ccc(O)cc1)C(=O)N1CCC[C@H]1C(=O)N[C@@H](CCCNC(=N)N)C(=O)N[C@H](C(=O)N[C@@H](CC(N)=O)C(=O)N[C@H](C(=O)NCC(=O)N[C@@H](CO)C(=O)NCC(=O)N[C@H](C(=O)N1CCC[C@H]1C(N)=O)[C@@H](C)O)[C@@H](C)O)[C@@H](C)O)[C@@H](C)O` [sCT, salmon calcitonin] was tested, and the “changes in sCT concentration in Tris-HCl buffer” value (trypsin; no enzyme, up to 2 hrs at 37° C.) was “No significant changes”, the “Ratio (half-life)” value (trypsin; trypsin, no inhibitor) was 1.00 and the “Ratio (half-life)” value (α-chymotrypsin [2]) was 1.00. For the same compound, the “time in which all sCT degraded” value ([3]; both proteases together) was at most 5 min, the “Amount (%) of sCT remaining at 60 min (I60)” value ([3]; trypsin 0.5 μM + chymotrypsin 0.1 μM) was 0.00 ± 0.00% and the “Ratio (half-life)” value ([3]; trypsin and α-chymotrypsin) was 1.00.
